Experimental data reported in the supplement of paper PMC10849652.
This is one part of the list.

Chains of the proteins cited; added tags and fusions are not shown. Lines headed by an entry give the natural chain unless they say otherwise; changes in a name come on top.
UniProt Q16378: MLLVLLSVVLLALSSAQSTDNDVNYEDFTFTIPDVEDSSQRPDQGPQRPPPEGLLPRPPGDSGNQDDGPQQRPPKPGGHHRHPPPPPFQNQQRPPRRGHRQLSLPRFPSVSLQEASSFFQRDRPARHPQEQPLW
UniProt Q9ULL5: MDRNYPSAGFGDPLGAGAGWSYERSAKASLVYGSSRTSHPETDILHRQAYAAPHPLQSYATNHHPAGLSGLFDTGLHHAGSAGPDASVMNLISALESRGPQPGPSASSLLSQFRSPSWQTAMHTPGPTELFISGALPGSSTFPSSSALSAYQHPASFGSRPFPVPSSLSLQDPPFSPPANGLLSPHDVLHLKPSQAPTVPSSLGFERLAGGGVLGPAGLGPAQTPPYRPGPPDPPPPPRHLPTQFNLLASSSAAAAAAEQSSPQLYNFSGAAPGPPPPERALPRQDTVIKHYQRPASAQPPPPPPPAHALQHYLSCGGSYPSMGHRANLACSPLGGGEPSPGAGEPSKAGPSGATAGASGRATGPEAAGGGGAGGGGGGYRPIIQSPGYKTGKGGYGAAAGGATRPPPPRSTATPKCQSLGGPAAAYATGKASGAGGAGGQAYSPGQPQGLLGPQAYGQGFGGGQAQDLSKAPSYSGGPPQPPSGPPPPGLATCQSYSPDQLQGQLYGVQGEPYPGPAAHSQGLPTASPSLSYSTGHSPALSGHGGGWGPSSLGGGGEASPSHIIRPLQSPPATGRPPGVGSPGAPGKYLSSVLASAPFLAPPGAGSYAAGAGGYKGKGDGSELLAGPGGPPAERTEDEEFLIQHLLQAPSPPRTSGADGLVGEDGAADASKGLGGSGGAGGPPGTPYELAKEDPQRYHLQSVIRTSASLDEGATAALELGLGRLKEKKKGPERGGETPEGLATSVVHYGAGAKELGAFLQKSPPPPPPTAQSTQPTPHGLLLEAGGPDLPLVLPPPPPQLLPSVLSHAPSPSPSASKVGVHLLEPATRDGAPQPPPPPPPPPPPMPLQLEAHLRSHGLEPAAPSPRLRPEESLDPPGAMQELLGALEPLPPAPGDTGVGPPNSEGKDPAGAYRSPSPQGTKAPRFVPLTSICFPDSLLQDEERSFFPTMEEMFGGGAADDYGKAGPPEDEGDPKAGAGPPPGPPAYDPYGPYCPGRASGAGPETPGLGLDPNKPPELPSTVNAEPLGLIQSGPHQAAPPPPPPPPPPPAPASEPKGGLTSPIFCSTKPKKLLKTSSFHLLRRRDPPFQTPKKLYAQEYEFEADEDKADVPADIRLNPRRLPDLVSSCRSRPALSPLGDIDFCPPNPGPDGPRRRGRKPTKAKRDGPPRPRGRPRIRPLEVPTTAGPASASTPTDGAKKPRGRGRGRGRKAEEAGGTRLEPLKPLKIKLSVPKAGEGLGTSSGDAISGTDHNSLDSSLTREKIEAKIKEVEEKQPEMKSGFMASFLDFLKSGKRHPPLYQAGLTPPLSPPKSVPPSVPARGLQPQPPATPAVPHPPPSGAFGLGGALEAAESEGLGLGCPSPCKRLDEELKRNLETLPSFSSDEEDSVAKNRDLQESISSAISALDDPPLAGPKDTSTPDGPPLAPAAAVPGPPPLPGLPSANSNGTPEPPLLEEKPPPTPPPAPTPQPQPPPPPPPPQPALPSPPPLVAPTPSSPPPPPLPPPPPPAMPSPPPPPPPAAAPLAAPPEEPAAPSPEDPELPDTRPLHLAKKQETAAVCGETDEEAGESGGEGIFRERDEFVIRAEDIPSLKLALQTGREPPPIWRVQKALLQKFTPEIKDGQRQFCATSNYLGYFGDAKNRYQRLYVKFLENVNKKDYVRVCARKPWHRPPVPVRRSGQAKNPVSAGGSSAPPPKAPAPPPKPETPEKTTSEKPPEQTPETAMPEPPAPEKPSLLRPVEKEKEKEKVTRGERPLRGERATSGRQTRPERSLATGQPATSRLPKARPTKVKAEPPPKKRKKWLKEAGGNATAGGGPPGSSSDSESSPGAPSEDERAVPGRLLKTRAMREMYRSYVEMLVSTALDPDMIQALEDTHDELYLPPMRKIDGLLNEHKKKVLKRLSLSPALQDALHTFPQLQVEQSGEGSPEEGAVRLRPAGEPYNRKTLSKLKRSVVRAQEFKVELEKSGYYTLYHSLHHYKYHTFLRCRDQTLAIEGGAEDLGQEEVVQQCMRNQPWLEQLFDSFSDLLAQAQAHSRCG
UniProt Q8WV60: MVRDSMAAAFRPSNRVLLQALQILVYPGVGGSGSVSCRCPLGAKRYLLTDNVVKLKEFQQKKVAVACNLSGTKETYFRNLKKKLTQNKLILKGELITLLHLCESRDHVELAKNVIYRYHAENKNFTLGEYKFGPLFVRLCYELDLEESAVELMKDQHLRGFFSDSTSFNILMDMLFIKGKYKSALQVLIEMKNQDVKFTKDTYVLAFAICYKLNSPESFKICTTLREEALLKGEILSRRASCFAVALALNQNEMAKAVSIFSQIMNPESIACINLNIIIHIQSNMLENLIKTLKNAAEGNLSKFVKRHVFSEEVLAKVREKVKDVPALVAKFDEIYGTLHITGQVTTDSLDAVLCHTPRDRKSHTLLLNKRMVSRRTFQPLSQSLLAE
UniProt Q9BRX8: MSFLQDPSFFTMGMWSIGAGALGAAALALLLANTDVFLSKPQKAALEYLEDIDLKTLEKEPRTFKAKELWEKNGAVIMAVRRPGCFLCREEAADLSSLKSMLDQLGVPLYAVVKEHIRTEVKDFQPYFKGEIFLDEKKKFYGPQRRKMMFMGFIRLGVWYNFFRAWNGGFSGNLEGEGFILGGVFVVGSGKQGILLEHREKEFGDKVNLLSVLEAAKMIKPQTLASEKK
UniProt Q5THK1: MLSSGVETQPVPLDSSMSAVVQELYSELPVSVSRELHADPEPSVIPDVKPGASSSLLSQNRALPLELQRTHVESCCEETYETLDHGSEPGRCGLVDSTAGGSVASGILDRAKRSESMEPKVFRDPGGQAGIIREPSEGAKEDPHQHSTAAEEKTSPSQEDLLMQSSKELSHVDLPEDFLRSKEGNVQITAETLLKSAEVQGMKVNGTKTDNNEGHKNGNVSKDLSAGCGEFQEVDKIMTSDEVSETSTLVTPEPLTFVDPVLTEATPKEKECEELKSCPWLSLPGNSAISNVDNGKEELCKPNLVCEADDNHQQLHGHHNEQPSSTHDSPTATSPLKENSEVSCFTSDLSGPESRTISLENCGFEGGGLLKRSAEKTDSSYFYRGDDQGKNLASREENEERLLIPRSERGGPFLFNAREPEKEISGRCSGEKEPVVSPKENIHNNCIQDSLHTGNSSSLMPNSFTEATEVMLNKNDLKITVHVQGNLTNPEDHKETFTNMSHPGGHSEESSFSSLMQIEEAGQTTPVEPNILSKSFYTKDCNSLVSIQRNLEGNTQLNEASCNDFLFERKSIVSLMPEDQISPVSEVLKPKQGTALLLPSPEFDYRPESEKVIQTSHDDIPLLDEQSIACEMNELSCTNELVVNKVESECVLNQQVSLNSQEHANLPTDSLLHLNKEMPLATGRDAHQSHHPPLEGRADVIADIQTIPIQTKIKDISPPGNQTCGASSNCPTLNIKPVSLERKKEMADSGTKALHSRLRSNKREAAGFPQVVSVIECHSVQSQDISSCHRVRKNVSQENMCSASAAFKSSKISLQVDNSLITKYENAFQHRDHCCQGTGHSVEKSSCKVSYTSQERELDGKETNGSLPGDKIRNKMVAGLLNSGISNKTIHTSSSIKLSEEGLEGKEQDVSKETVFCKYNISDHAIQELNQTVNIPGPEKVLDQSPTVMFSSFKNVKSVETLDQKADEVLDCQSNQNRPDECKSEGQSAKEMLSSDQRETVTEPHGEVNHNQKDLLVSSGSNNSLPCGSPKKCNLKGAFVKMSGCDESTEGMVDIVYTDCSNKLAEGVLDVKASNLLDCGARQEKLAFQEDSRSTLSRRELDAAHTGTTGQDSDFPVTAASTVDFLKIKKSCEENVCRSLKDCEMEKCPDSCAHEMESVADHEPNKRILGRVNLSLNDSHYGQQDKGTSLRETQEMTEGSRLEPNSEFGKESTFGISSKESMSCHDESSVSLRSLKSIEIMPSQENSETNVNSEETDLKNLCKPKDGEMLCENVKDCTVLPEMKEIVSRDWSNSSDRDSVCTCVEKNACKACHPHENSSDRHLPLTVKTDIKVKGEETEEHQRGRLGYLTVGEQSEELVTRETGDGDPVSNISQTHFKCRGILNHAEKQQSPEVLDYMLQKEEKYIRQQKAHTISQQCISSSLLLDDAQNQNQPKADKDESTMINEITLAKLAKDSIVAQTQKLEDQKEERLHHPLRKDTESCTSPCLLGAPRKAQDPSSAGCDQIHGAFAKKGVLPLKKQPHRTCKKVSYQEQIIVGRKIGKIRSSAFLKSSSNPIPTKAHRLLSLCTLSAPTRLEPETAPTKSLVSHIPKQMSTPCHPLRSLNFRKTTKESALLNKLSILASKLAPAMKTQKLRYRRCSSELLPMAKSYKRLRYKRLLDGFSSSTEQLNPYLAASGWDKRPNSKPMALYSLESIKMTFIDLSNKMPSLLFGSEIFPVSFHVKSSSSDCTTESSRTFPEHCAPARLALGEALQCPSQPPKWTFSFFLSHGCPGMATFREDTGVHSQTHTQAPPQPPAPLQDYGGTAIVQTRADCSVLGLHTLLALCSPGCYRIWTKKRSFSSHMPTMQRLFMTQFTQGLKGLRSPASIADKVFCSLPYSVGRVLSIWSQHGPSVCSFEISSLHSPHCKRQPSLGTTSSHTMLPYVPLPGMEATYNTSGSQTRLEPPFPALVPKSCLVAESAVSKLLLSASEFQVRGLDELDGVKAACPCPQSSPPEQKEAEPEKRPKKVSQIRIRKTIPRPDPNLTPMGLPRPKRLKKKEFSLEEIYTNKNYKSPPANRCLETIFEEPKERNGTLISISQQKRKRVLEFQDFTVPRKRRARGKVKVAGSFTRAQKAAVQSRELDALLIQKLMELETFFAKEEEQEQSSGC
UniProt Q86Y79: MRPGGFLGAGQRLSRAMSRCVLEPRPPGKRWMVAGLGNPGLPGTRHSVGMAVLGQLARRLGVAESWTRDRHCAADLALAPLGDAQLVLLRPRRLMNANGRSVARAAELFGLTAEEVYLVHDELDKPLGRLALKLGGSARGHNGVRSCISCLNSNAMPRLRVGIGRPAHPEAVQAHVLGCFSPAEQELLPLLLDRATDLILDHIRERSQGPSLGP
UniProt O14668: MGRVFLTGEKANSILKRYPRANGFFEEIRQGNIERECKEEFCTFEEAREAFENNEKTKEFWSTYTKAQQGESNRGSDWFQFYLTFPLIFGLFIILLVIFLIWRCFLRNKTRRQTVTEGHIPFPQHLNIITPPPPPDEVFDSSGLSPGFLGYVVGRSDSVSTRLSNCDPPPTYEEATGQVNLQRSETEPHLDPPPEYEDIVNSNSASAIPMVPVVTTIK
UniProt O75365, whole entry, looked up: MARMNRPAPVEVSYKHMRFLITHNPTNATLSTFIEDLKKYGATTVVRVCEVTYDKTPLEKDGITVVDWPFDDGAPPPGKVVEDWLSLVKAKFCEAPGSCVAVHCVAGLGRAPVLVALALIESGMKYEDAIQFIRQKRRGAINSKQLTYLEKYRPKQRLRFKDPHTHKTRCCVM
UniProt A2A3K4: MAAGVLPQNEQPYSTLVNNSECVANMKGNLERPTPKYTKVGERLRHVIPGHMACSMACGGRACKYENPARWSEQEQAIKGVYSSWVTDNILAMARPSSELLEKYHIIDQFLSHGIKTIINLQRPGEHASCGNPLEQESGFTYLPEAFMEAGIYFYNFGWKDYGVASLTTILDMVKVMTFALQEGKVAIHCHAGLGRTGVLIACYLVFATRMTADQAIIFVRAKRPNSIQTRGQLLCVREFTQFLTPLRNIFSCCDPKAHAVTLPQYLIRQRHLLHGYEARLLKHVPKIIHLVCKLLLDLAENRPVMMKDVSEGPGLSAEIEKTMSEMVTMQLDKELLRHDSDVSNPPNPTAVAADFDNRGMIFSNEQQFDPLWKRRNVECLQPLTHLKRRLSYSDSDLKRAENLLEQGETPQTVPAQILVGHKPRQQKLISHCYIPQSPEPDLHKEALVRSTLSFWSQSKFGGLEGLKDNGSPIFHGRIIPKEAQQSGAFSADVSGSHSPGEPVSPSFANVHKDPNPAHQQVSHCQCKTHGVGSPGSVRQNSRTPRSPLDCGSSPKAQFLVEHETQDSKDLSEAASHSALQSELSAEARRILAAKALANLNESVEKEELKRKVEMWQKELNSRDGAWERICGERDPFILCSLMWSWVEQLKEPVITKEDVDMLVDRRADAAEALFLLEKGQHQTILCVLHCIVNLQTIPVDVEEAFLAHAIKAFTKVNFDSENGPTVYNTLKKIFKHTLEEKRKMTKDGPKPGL
UniProt O14818: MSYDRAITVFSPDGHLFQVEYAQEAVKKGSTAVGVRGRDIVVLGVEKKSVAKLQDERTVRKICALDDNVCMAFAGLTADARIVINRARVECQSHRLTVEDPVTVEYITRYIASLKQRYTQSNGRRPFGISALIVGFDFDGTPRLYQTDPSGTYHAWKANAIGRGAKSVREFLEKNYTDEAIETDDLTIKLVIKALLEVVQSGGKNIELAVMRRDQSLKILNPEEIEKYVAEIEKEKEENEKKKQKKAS

compound: CC(C)(C)Cn1c(N)nc2ccc(-c3[nH]c(C(C)(C)C)nc3-c3ccc(F)cc3)nc21 [ralimetinib]; experiment: log2 fold change, soluble protein after heating vs DMSO (PISA); higher = thermal stabilisation; K562 lysate, 10 uM; active = over 0.2 and 3.5 SD of the protein, either way, in both replicates (recomputed)
Summary of the method: (§1)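 K562 pellets were dounce-homogenised in PBS pH 7.4 with 1 mM MgCl2, and the crude extract at 1 mg/mL protein was treated with 10 μM compound for 30 min. Aliquots were heated for 3 min across 48°C-58°C, pooled, and brought to 0.5% NP-40 at 4°C; soluble protein was the supernatant after 21,000xg for 90 min. Soluble protein was quantified by TMTpro 16plex LC-MS/MS with channel sums equalised, and reported as log2 fold change in thermal stability against DMSO controls, with values from duplicates.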

**Q.** How did the log2 fold change turn out when PRSS8 (UniProt Q16651) was run?
**A.** inactive: 0.008

**Q.** Which log2 fold change does the source give for PSMD4 (UniProt Q5VWC4) here?
**A.** inactive: -0.009

**Q.** PSIP1 (UniProt V9GYT7) was tested. Which log2 fold change did it give?
**A.** inactive: -0.05

**Q.** Which log2 fold change does the source give for PRR4 (UniProt Q16378) here?
**A.** inactive: -0.188

**Q.** Which log2 fold change does the source give for PRR12 (UniProt Q9ULL5) here?
**A.** inactive: 0.192

**Q.** For PTCD2 (UniProt Q8WV60), which log2 fold change is on record?
**A.** inactive: 0.085

**Q.** For PSEN2 (UniProt P49810), which log2 fold change is on record?
**A.** inactive: 0.059

**Q.** How did the log2 fold change turn out when PRXL2A (UniProt Q9BRX8) was run?
**A.** inactive: 0.013

**Q.** PRR14L (UniProt Q5THK1) was tested. Which log2 fold change did it give?
**A.** inactive: -0.099

**Q.** For PTRH1 (UniProt Q86Y79), which log2 fold change is on record?
**A.** inactive: -0.065

**Q.** With PTPA (UniProt Q5T948) as the target, how does the log2 fold change read?
**A.** inactive: 0.12

**Q.** PTGES3 isoform 4 (UniProt Q15185) was tested. Which log2 fold change did it give?
**A.** inactive: -0.279

**Q.** Which log2 fold change does the source give for PRRG1 (UniProt O14668) here?
**A.** inactive: 0.081

**Q.** For PRRC2B (UniProt H0Y412), which log2 fold change is on record?
**A.** inactive: 0.096

**Q.** With PSMA3 (UniProt H0YJ03) as the target, how does the log2 fold change read?
**A.** inactive: 0.004

compound: CC(C)(O)CC(=O)NCCn1ccc2ncnc(Nc3ccc(Oc4cccc(C(F)(F)F)c4)c(Cl)c3)c21; experiment: as above
Summary of the method: as §1

**Q.** With PRSS8 (UniProt Q16651) as the target, how does the log2 fold change read?
**A.** inactive: -0.11

**Q.** Which log2 fold change does the source give for PSMD4 (UniProt Q5VWC4) here?
**A.** inactive: 0.069

**Q.** With PSIP1 (UniProt V9GYT7) as the target, how does the log2 fold change read?
**A.** inactive: -0.079

**Q.** How did the log2 fold change turn out when PRR4 (UniProt Q16378) was run?
**A.** inactive: 0.305

**Q.** How did the log2 fold change turn out when PRR12 (UniProt Q9ULL5) was run?
**A.** inactive: -0.018

**Q.** With PTCD2 (UniProt Q8WV60) as the target, how does the log2 fold change read?
**A.** inactive: -0.108

**Q.** With PSEN2 (UniProt P49810) as the target, how does the log2 fold change read?
**A.** inactive: -0.028

**Q.** For PRXL2A (UniProt Q9BRX8), which log2 fold change is on record?
**A.** inactive: -0.234

**Q.** For PRR14L (UniProt Q5THK1), which log2 fold change is on record?
**A.** inactive: -0.02

**Q.** How did the log2 fold change turn out when PTRH1 (UniProt Q86Y79) was run?
**A.** inactive: -0.081

**Q.** PTPA (UniProt Q5T948) was tested. Which log2 fold change did it give?
**A.** inactive: -0.018

**Q.** Which log2 fold change does the source give for PTGES3 isoform 4 (UniProt Q15185) here?
**A.** inactive: -0.089

**Q.** With PRRG1 (UniProt O14668) as the target, how does the log2 fold change read?
**A.** inactive: 0.072

**Q.** For PRRC2B (UniProt H0Y412), which log2 fold change is on record?
**A.** inactive: -0.033

**Q.** With PSMA3 (UniProt H0YJ03) as the target, how does the log2 fold change read?
**A.** inactive: -0.105

compound: CC(C)C1=C2N=C(C=C(N2N=C1)NCC3=CC=CC=C3)NCCCCCCN; experiment: as above
Summary of the method: as §1

**Q.** Which log2 fold change does the source give for PRSS8 (UniProt Q16651) here?
**A.** inactive: 0

**Q.** With PSMD4 (UniProt Q5VWC4) as the target, how does the log2 fold change read?
**A.** inactive: -0.151

**Q.** Which log2 fold change does the source give for PSIP1 (UniProt V9GYT7) here?
**A.** inactive: -0.039

**Q.** PTP4A3 (UniProt O75365) was tested. Which log2 fold change did it give?
**A.** inactive: 0.04

**Q.** How did the log2 fold change turn out when PRR4 (UniProt Q16378) was run?
**A.** inactive: 1.86

**Q.** PSAP isoform 2 (UniProt P07602) was tested. Which log2 fold change did it give?
**A.** inactive: -0.166

**Q.** PTCD2 (UniProt Q8WV60) was tested. Which log2 fold change did it give?
**A.** inactive: 0.028

**Q.** How did the log2 fold change turn out when PRXL2A (UniProt Q9BRX8) was run?
**A.** inactive: 0.031

**Q.** With PTPDC1 isoform 2 (UniProt A2A3K4) as the target, how does the log2 fold change read?
**A.** inactive: -0.077

**Q.** With PRR14L (UniProt Q5THK1) as the target, how does the log2 fold change read?
**A.** inactive: 0.053

**Q.** How did the log2 fold change turn out when PTRH1 (UniProt Q86Y79) was run?
**A.** inactive: -0.061

**Q.** With PRRC2B (UniProt H0Y412) as the target, how does the log2 fold change read?
**A.** inactive: -0.086

**Q.** Which log2 fold change does the source give for PSMB2, A0A087WVV1 here?
**A.** inactive: 0.004

**Q.** With PSMA3 (UniProt H0YJ03) as the target, how does the log2 fold change read?
**A.** inactive: -0.07

compound: CC1=C(C(CC(=O)N1)C2=CC=C(C=C2)C(F)(F)F)C(=O)NC3=C(C=C4C(=C3)C=NN4)F; experiment: as above
Summary of the method: as §1

**Q.** PSMD4 (UniProt Q5VWC4) was tested. Which log2 fold change did it give?
**A.** inactive: -0.069

**Q.** How did the log2 fold change turn out when PRR4 (UniProt Q16378) was run?
**A.** inactive: 1.73

**Q.** With PSMC5 (UniProt J3KRP2) as the target, how does the log2 fold change read?
**A.** inactive: 0.05

**Q.** How did the log2 fold change turn out when PSMA7 isoform 2 (UniProt O14818) was run?
**A.** inactive: -0.069

**Q.** PTCD2 (UniProt Q8WV60) was tested. Which log2 fold change did it give?
**A.** inactive: 0.18

**Q.** For PSME3 (UniProt K7EMD0), which log2 fold change is on record?
**A.** inactive: -0.064

**Q.** For PSEN2 (UniProt P49810), which log2 fold change is on record?
**A.** inactive: 0.016

**Q.** How did the log2 fold change turn out when PRXL2A (UniProt Q9BRX8) was run?
**A.** inactive: -0.077

**Q.** With PTPDC1 isoform 2 (UniProt A2A3K4) as the target, how does the log2 fold change read?
**A.** inactive: 0.103

**Q.** With PRR14L (UniProt Q5THK1) as the target, how does the log2 fold change read?
**A.** inactive: -0.002

**Q.** How did the log2 fold change turn out when PRR3 (UniProt P79522) was run?
**A.** inactive: 0.022

**Q.** PTPA (UniProt Q5T949) was tested. Which log2 fold change did it give?
**A.** inactive: -0.001

compound: CC1=C(C2=C(C=C1)C(=O)C3=CC=CC=C3N2CCCN)C; experiment: as above
Summary of the method: as §1

**Q.** For PRSS8 (UniProt Q16651), which log2 fold change is on record?
**A.** inactive: -0.02

**Q.** Which log2 fold change does the source give for PTP4A3 (UniProt O75365) here?
**A.** inactive: -0.109

**Q.** Which log2 fold change does the source give for PTOV1 (UniProt Q86YD1) here?
**A.** inactive: -0.14

**Q.** With PSMA7 isoform 2 (UniProt O14818) as the target, how does the log2 fold change read?
**A.** inactive: 0.172

**Q.** How did the log2 fold change turn out when PTCD2 (UniProt Q8WV60) was run?
**A.** inactive: -0.058

**Q.** PSEN2 (UniProt P49810) was tested. Which log2 fold change did it give?
**A.** inactive: 0.026

**Q.** PRXL2A (UniProt Q9BRX8) was tested. Which log2 fold change did it give?
**A.** inactive: -0.006

**Q.** For PRR14L (UniProt Q5THK1), which log2 fold change is on record?
**A.** inactive: -0.027

**Q.** How did the log2 fold change turn out when PWWP2B (UniProt Q6NUJ5) was run?
**A.** inactive: -0.006

**Q.** PSTK (UniProt H7BYY4) was tested. Which log2 fold change did it give?
**A.** inactive: -0.213

**Q.** For PRSS2 (UniProt P07478), which log2 fold change is on record?
**A.** inactive: -0.104

**Q.** Which log2 fold change does the source give for PSMA3 (UniProt H0YJ03) here?
**A.** inactive: -0.108

compound: CC1=C(C=C(C=C1)NC(=O)C2=CC(=CC=C2)C(C)(C)C#N)NC3=CC4=C(C=C3)N=CN(C4=O)C; experiment: as above
Summary of the method: as §1

**Q.** With PRSS8 (UniProt Q16651) as the target, how does the log2 fold change read?
**A.** inactive: 0.11

**Q.** Which log2 fold change does the source give for PSMD4 (UniProt Q5VWC4) here?
**A.** inactive: 0.053

**Q.** PTPN14 (UniProt Q15678) was tested. Which log2 fold change did it give?
**A.** inactive: 0.16

**Q.** How did the log2 fold change turn out when PSIP1 (UniProt V9GYT7) was run?
**A.** inactive: 0.059

**Q.** Which log2 fold change does the source give for PTP4A3 (UniProt O75365) here?
**A.** inactive: -0.313

**Q.** PTOV1 (UniProt Q86YD1) was tested. Which log2 fold change did it give?
**A.** inactive: -0.167

**Q.** PSMA7 isoform 2 (UniProt O14818) was tested. Which log2 fold change did it give?
**A.** inactive: -0.154

**Q.** For PRR12 (UniProt Q9ULL5), which log2 fold change is on record?
**A.** inactive: 0.127

**Q.** For PTCD2 (UniProt Q8WV60), which log2 fold change is on record?
**A.** inactive: 0

**Q.** Which log2 fold change does the source give for PSEN2 (UniProt P49810) here?
**A.** inactive: -0.041

**Q.** How did the log2 fold change turn out when PTPDC1 isoform 2 (UniProt A2A3K4) was run?
**A.** inactive: -0.042

**Q.** How did the log2 fold change turn out when PRR14L (UniProt Q5THK1) was run?
**A.** inactive: 0.061

**Q.** With PTRH1 (UniProt Q86Y79) as the target, how does the log2 fold change read?
**A.** inactive: 0.129

**Q.** PRR3 (UniProt P79522) was tested. Which log2 fold change did it give?
**A.** inactive: -0.02

**Q.** Which log2 fold change does the source give for PSMF1 (UniProt Q5QPM7) here?
**A.** inactive: 0.066

**Q.** With PSMB2, A0A087WVV1 as the target, how does the log2 fold change read?
**A.** inactive: -0.052

**Q.** Which log2 fold change does the source give for PRR16 (UniProt Q569H4) here?
**A.** inactive: 0.05

**Q.** For PTPRF (UniProt P10586), which log2 fold change is on record?
**A.** inactive: 0.224

**Q.** For PSMA3 (UniProt H0YJ03), which log2 fold change is on record?
**A.** inactive: 0.1

**Q.** With PTGER3 isoform 2 (UniProt P43115) as the target, how does the log2 fold change read?
**A.** inactive: -0.044
